# Laboratory results taken from PubChem BioAssay AID1688 (National Center for Advancing Translational Sciences (NCATS), 2009).
# The campaign covered roughly 220,000 compounds. About 2,400 (1.1%) were called active. The shares of active, inactive and inconclusive entries below differ from those in the screen. The call rests on the fitted dose curve; in most records, active means well fitted inhibition curve with a large enough effect; inconclusive means small, poorly fitted or top-dose-only effect, or effect the other way; inactive means no such curve, though single readings can be large or run the other way. A potency beside an inconclusive call is a rough fit, not a confirmed value.
# Test: qHTS Multiplex Assay to Identify Dual Action Probes in a Cell Model of Huntington: Aggregate Formation (GFP); further: nearly all actives have a fitted effect of over 60% in size
# Conditions: PC12 HttQ103-GFP aggregates, Acumen cytometry, 40 h; activity change, negative = inhibition: at 46.1 µM (top of the series) unless noted
# Procedure, shortened: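 Multiplexed with ATP-based cell death, this channel scores GFP aggregates in PC12 cells expressing inducible HTTex1-Q103-GFP. Induction used 100 nM tebufenozide; compounds were tested in concentration series.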
# On the % scale 0 is the no-effect control and ±100 the full control effect; potency means the concentration at half of the fitted maximal effect.
Structure (SMILES),Potency,"activity change, negative = inhibition"
CCC(C)c1ccccc1OCCOCCN1CCCC1 (stereo unspecified),"inconclusive: 14.1 µM [inhibitor, single point]",
O=C(NC(Nc1nc2ccc([N+](=O)[O-])cc2s1)(C(F)(F)F)C(F)(F)F)c1ccccc1,active: 0.126 µM,
COc1ccc(CN2CCN(C(=O)c3cccs3)CC2)cc1,"inconclusive: 35.5 µM [inhibitor, single point]",
CCOc1c(Br)ccc2c1sc1nc[nH]c(=O)c12,active: 11.2 µM,
O/N=C(\c1ccc(Cl)cc1)c1cc2ccccc2o1,"inconclusive: 35.5 µM [inhibitor, single point]",
Cc1ccc(-n2cc(-c3ccccc3)c3c(N4CCN(C)CC4)ncnc32)cc1,"inconclusive: 35.5 µM [inhibitor, partial curve]",
O=C(Nc1ccc(Nc2ccncc2)cc1)c1ccc(Nc2ccnc3ccc([N+](=O)[O-])cc23)cc1[N+](=O)[O-],,inactive: -2.99% [at 9.22 µM]
O=C(COc1ccc(Br)cc1CNC1CCCC1)Nc1ccccc1,"inconclusive: 14.1 µM [inhibitor, single point]",
Cc1oc2ccc(O)c(CN3CCOCC3)c2c1C(C)O (stereo unspecified),inactive,
CC(=O)NC1=NN(c2ccccc2)C(=O)C1,inactive,
Cc1cc(NC(=O)/C(C#N)=C/c2ccc(-c3ccc(SC(F)F)cc3)o2)n(-c2ccccc2)n1,"inconclusive: 10 µM [inhibitor, partial curve]",
Cc1nn(-c2ccccc2)c2c1C(c1ccc([N+](=O)[O-])cc1)N1C(=N2)C(=O)Nc2ccccc21 (stereo unspecified),active: 12.6 µM,
COC(=O)C1=C(C)N(C2CCCCC2)C(=O)C1,inactive,
CN(C)CCNC(=O)/C(=C/c1ccc(-c2ccc(Cl)cc2Cl)o1)NC(=O)c1ccccc1,active: 35.5 µM,
COc1cccc(C(C)NC(=S)NCc2ccc(Cl)cc2)c1 (stereo unspecified),"inconclusive: 10 µM [inhibitor, single point]",
O=C1CC(c2ccccc2)n2nc(NC(=O)c3ccccc3)nc2N1 (stereo unspecified),"inconclusive: 25.1 µM [activator, single point]",
CCOC(=O)CSc1cccc2cccnc12,"inconclusive: 25.1 µM [activator, partial curve]",
Cc1cccc(NC(=O)Cn2cnc3ccc(S(=O)(=O)N4CCC(C)CC4)cc3c2=O)n1,inactive,
C=CCn1c(SCc2nc3ccccc3nc2C)nnc1-c1ccoc1C,inactive,
Oc1c(CN2CCCCC2)cc(COCc2ccccc2)c2cccnc12,"inconclusive: 0.355 µM [inhibitor, partial curve, poor fit]",
Cc1ccc(/C=N/NS(=O)(=O)c2ccc([N+](=O)[O-])cc2)o1,"inconclusive: 35.5 µM [activator, single point]",
O=c1c(Cc2ccc(Cl)cc2Cl)c(O)ccn1Cc1ccc(Cl)cc1,active: 20 µM,
O=C(COC(=O)c1ccccc1[N+](=O)[O-])c1ccc(C2CCCCC2)cc1,"inconclusive: 20 µM [inhibitor, single point]",
Cc1ccc(C(=O)Nc2cc([N+](=O)[O-])ccc2C)cc1,"inconclusive: 1.78 µM [activator, partial curve]",

Structure (SMILES),Potency,"activity change, negative = inhibition"
Cc1cccc(N2CCN(C(=O)c3ccc(NS(=O)(=O)c4c(C)noc4C)cc3)CC2)c1C,active: 20 µM,
CC(=O)N1CCN(C(=O)CC2OC(=O)c3ccccc32)CC1 (stereo unspecified),inactive,
CCOC(=O)c1oc2ccccc2c1CN1CCN(c2ccccc2)CC1,"inconclusive: 2.82 µM [inhibitor, single point]",
CC1=C(C(=O)N(C)CCC#N)C2(CCCCC2)OC1=O,"inconclusive: 0.0316 µM [inhibitor, full curve, poor fit]",
Cc1cc(C)c(NC(=S)NC(NC(=O)c2ccccc2)C(Cl)(Cl)Cl)c(C)c1 (stereo unspecified),"inconclusive: 35.5 µM [inhibitor, single point]",
CCN(Cc1ccccc1)S(=O)(=O)c1ccc(C(=O)Nc2nnc(C3CC3)o2)cc1,"inconclusive: 35.5 µM [inhibitor, single point]",
Clc1ccc(-c2c[nH]c3ccccc23)nn1,"inconclusive: 15.8 µM [activator, single point]",
CCOc1ccc(-c2nc(C#N)c(N3CCN(Cc4ccccc4)CC3)o2)cc1,"inconclusive: 17.8 µM [inhibitor, single point]",
c1ccc2[nH]ccc2c1,inactive,
CCN(CC)c1ccc(/C=N/Nc2nc3ccccc3[nH]2)c(O)c1,"inconclusive: 3.55 µM [inhibitor, partial curve]",
CCOc1ccc(Nc2nc(N)nc(CCl)n2)cc1,"inconclusive: 1.12 µM [inhibitor, single point]",
Cc1onc(-c2ccccc2)c1C(=O)NNC(=S)NC(=O)c1ccc(Cl)cc1Cl,"inconclusive: 25.1 µM [inhibitor, single point]",
Cc1nn(-c2ccccc2)c2nc(C(F)(F)F)[nH]c(=O)c12,"inconclusive: 5.62 µM [inhibitor, single point]",
CN(Cc1nc(-c2ccccn2)no1)S(=O)(=O)c1ccc(Br)cc1,"inconclusive: 5.62 µM [inhibitor, single point]",
COCCn1c(SCC(=O)N2CCCc3ccccc32)nc2c(c1=O)SC(C)C2 (stereo unspecified),"inconclusive: 0.112 µM [activator, partial curve, poor fit]",
Nc1ccc(-c2nc3cc(N)ccc3n2CCO)cc1,"inconclusive: 1.12 µM [activator, single point]",
CC1CN(c2ccc(Oc3ccccc3)cc2)c2nc3c(c(=O)[nH]c(=O)n3C)n2C1 (stereo unspecified),inactive,
O=c1[nH]ncc(N/N=C\c2cccs2)c1Cl,"inconclusive: 7.08 µM [activator, full curve, poor fit]",
COc1ccc(-c2ccc(-c3noc(-c4ccc(OC)c(OC)c4)n3)c(OC)n2)cc1,inactive,
Cc1ccc(Cn2ccsc2=NC(=O)CCl)cc1,"inconclusive: 31.6 µM [inhibitor, single point]",
CCCCn1c(NS(=O)(=O)c2ccccc2)c(S(=O)(=O)c2ccc(C)cc2)c2nc3ccccc3nc21,"inconclusive: 35.5 µM [inhibitor, single point]",
CCCCCCOc1ccc(NC(=O)CC2C(=O)N(CC)C(=S)N2Cc2ccco2)cc1 (stereo unspecified),"inconclusive: 35.5 µM [inhibitor, single point]",
CCOc1ccccc1C(=O)N1CCC(C(=O)c2ccc(F)cc2)CC1,"inconclusive: 14.1 µM [inhibitor, single point]",
Cc1ccc(-c2nnn(C/C(N)=N/O)n2)cc1,"inconclusive: 3.55 µM [inhibitor, partial curve]",

# Whole records from above:
# `Oc1c(CN2CCCCC2)cc(COCc2ccccc2)c2cccnc12` reads Potency: inconclusive: 0.355 µM [inhibitor, partial curve, poor fit]
# `O=c1c(Cc2ccc(Cl)cc2Cl)c(O)ccn1Cc1ccc(Cl)cc1` reads Potency: active: 20 µM

# Additional results follow.

Structure (SMILES),Potency,"activity change, negative = inhibition"
COCCNC(=O)C1c2ccccc2C(=O)N(CCOC)C1c1ccc(F)cc1 (stereo unspecified),"inconclusive: 35.5 µM [inhibitor, single point]",
COc1cccc(C(=O)C2CN(c3ccccc3)CC2c2ccc(Cl)cc2)c1 (stereo unspecified),"inconclusive: 12.6 µM [inhibitor, single point]",
Cc1ccc(-c2noc(C3CCCN(C(=O)c4ccc(F)cc4F)C3)n2)cc1 (stereo unspecified),"inconclusive: 35.5 µM [inhibitor, single point]",
CCOC(=O)Cn1c(=O)c2c(nc(N3CCOCC3)n2C)n(C)c1=O,"inconclusive: 6.31 µM [activator, partial curve]",
O=c1c2ccccc2nc2n1C(CSCc1ccc(Cl)cc1)CS2 (stereo unspecified),active: 11.2 µM,
C=CCn1c(-c2ccco2)n[nH]c1=S,inactive,
COc1ccc(S(=O)(=O)N(C)c2ccc(C(=O)NC3CCCC3)cc2)cc1,inactive,
Cc1cc(-c2n[nH]c(=S)n2/N=C/C(Cl)=C/c2ccccc2)n[nH]1,"inconclusive: 2.82 µM [activator, single point]",
N#CC1=C(N)Oc2n[nH]c(-c3cccs3)c2C1c1ccsc1 (stereo unspecified),inactive,
Cc1ccc(S(=O)(=O)N(C)Cc2ccc(C(=O)N/N=C3\CCCC(=O)C3)cc2)cc1,inactive,
CCCCc1ccc(NC(=S)NCc2cccnc2)cc1,"inconclusive: 8.91 µM [inhibitor, partial curve]",
S=C(NCCC(c1ccccc1)c1ccccc1)Nc1cccc(Cl)c1,"inconclusive: 25.1 µM [inhibitor, single point]",
CCN(CC)S(=O)(=O)c1csc(C(=O)NC2CCCCC2)c1,"inconclusive: 0.224 µM [inhibitor, full curve, poor fit]",
CC(NC(=O)C12CC3(C)CC(C)(CC(C)(C3)C1)C2)C(=O)O (stereo unspecified),inactive,
O=S(=O)(c1ccc(Br)cc1)n1ccc2ccccc21,"inconclusive: 25.1 µM [inhibitor, single point]",
Nc1nc2ccccc2n1/N=C/c1ccc([N+](=O)[O-])s1,"inconclusive: 35.5 µM [inhibitor, single point]",
CC(C)c1nc2sc3c(=O)[nH]cnc3c2c2c1CCC2,inactive,
COC(=O)c1c(C)[nH]c(C(=O)/C=C/c2ccc(Cl)cc2)c1C,"inconclusive: 35.5 µM [inhibitor, single point]",
O=c1c2cc(Cl)ccc2nc(-c2ccc([N+](=O)[O-])cc2)n1O,active: 10 µM,
Cc1nc2c(-c3ccccc3)c(C)[nH]n2c(=O)c1Cl,active: 10 µM,
O=C(Nc1nnc(-c2ccc(Cl)cc2)o1)c1nc2ccccc2s1,"inconclusive: 35.5 µM [inhibitor, single point]",
Cc1ccc(C(=O)NNC(=O)/C=C\C(=O)O)cc1,"inconclusive: 1.26 µM [activator, single point]",
CCOc1ccc(S(=O)(=O)Nc2nc3ccccc3nc2Nc2ccc(N3CCOCC3)cc2)cc1,"inconclusive: 15.8 µM [inhibitor, single point]",
